## Screening data, single-dose tests

Data taken from ChEMBL document CHEMBL3988442, “University of Dundee, Small-Polar-MMV Screening Library” (2021).

Results are given as percent effect.
How 0% and 100% were set is not recorded. Most values in the screen are low, and negative values occur.
This is an unselected part of the compounds tested.
Two or more numbers in one place are separate tests of the same structure; such repeats can differ widely.

Mtb glucose medium: 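Whole-cell growth test on Mycobacterium tuberculosis, read after 3 days in glucose-containing 7H9 medium; the read-out is not stated. Compounds at 50 µM. Direction is inferred from retests: higher values go with more growth inhibition. Size under these conditions: about 69,000 compounds, about 760 of them at 50% or above in at least one test.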
Mtb cholesterol medium: 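Phenotypic screen: M. tuberculosis growth, cholesterol and DPPC medium, 4 days; the read-out is not stated. Tested at 50 µM. The record gives no direction; compounds that gave an IC50 in retests scored well above the rest, so higher reads as more growth inhibition. About 69,000 compounds were tested under these conditions; 0.54% (about 370) showed 50% or more at least once.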

SMILES,Mtb glucose medium,Mtb cholesterol medium
Cc1cc(C)c2c(N(C)CC3CCOC3)ncnc2n1 (centres undefined),19.58% and -1.755%,-14.33%
CCOc1ccc(S(=O)(=O)NCCCc2ccc(N(C)C)cc2)cc1F,21.62% and 11.49%,0.7065%
O=C(NC[C@H]1OC[C@@H](NC2CCCC2)[C@@H]1O)C1CCCC1,0.02015% and -34.6%,-32.88%
COc1ccc(CNc2n[nH]c(C)n2)cc1,11.9%,5.726%
CC(C)NC(=O)COc1nc(C(C)C)no1,9.074%,-20.09%
CN(C)c1cc(C2CCCN(C(=O)c3noc4c3CCCC4)C2)ccn1 (centres undefined),79.79%,61.23%
Cc1cnn(C2CCCN(C(=O)Cc3ccc(-n4cccn4)cc3)C2)c1 (centres undefined),-0.2554%,2.191%
CCn1nc(C)c2nc(C)nc(N(C)Cc3ccco3)c21,13.29%,1.699%
Cc1nn(C)c2nc(-c3ccccn3)nc(NCCCOC(C)C)c12,18.71% and 7.628%,2.622%
[H][C@]12CCCN(S(=O)(=O)c3ccc(Cl)s3)[C@@]1([H])CN(C(=O)C1CC1)C2,18.39%,12.6%
CCN(C)c1ncnc2c1CCN(C(=O)NCc1cccnc1)CC2.O=C(O)C(F)(F)F,-17.6% and -1.76%,-7.059%
CN1CCc2c(C#N)c(NCc3ccccc3)n3cnnc3c2C1,-44.55%,-7.848%
[H][C@@]12CCN(Cc3cc(C)on3)C[C@@]1([H])O[C@H](c1nc(C3CC3)cs1)C2,11.96%,4.879%
CN(Cc1ccc2c(c1)OCO2)C(=O)c1ccn(C)c(=O)c1,-7.321%,9.497%
CC(=O)N1CCC(c2nn(C)c(=O)n2-c2ccccc2)CC1,6.738%,12.89%
CN1C[C@@H](N)C[C@H]1c1nc(-c2ccc3c(c2)OCO3)no1,-2.825% and 3.905%,-17.03%
COCCCC1CCCN(Cc2c(C)ccc3ncccc23)C1 (centres undefined),-29.67%,1.731%
COc1ccc(CN(Cc2cncn2C)CC2CCCO2)c(OC)c1.O=C(O)CC(O)(CC(=O)O)C(=O)O (centres undefined),25.91%,-17.38%
O=C(CN1CCN(c2ccnc3c(F)ccc(F)c23)CC1)NC1CC1,-3.134% and -5.164%,-8.913%
NC(=O)N1CCCC(C(=O)N2CCc3c(nc(CC4CC4)[nH]c3=O)C2)C1 (centres undefined),15.6%,18.69%
CC(O)CN1CCN(C(=O)c2cc3ccccc3[nH]c2=O)CC1 (centres undefined),-1.975% and -0.4951%,-1.858%
C=C(C)CN(CC)C(=O)CN1CCCC1C(=O)N(C)C (centres undefined),-4.759% and -8.069%,-12.49%
Cc1cc(C)c(C)c(OCCCNC(=O)NC(C)c2nncn2C)c1 (centres undefined),-22%,8.216%
Cc1csc(C2(NC(=O)NCCN3CCOCC3)CCCC2)n1,-1.783% and 9.304%,2.539%
Cc1cccc(C(=O)N2CCCC(c3nccn3Cc3cscn3)C2)n1 (centres undefined),2.383%,-3.725% and 0.01204%
CCN(CCO)C[C@@H]1CN(c2nc(C)cc(C)n2)C[C@@H]1CO,-1.029%,1.244%
CN(C)c1cc(CNC(=O)Nc2ccc(F)cc2)ccn1,1.366%,-14.78%
O=C(O)C(F)(F)F.[H][C@]12CCC[C@@]1(COCC1CCOCC1)CN(Cc1cc(C)on1)C2,-3.507% and 0.6973%,5.68%
COc1c(C2CCCN2c2ncnc3sccc23)c(C)nn1C (centres undefined),-12.16%,7.144%
CN(C)C(CNC(=O)NCc1cc[nH]n1)c1ccco1 (centres undefined),2.934% and -2.315%,17.01%
CC(C)c1ncc2c(n1)CN(Cc1ccc3c(c1)OCCO3)CC2,-4.612%,-5.406%
O=C1NCC[C@]12CN(Cc1ccsc1)C[C@H]2c1ccccc1,7.456% and 13.78%,2.825%
[H][C@]12CC[C@](O)(c3ccc(C)cc3)[C@@]1([H])CN(S(=O)(=O)c1cn(C)nc1C)C2,9.201%,-4.232%
CN1CC2(CCCN(Cc3cccc(Oc4ccccc4)c3)C2)OC1=O (centres undefined),21.84%,-25.18% and 10.52%
Cc1nc2c(c(NCC(O)c3ccccc3Cl)n1)CCNCC2 (centres undefined),-5.893%,2.807%
Cc1cc(C(=O)N2CCOC[C@H](Oc3cccnc3)C2)c(C(F)(F)F)o1,-7.526% and -43.3%,-2.778%
Cc1nc(N)c2ccc(C3CCCCN3)nc2n1.Cl (centres undefined),-25.03%,-19.8% and -3.253%
NC(=O)N1CCCCCC1C1CCN(c2nccc(C(F)(F)F)n2)CC1 (centres undefined),-4.546% and 29.84%,6.928%
O=c1[nH]c(COc2cccc(F)c2)nc2c1CCNC2,-5.163% and -13.48%,5.072%
Cc1ccc(C(CNCc2ccc(C#N)cc2)N2CCOCC2)s1 (centres undefined),0.02888% and -10.63%,1.484%
CCn1cc(-c2cc(C(F)F)n3nc(CCC(=O)O)nc3n2)cn1,27.09%,10.68%
N[C@H]1CN(S(=O)(=O)N2CCCCCC2)C[C@@H]1c1ccccc1,-7.138%,0.6327%
Cn1cc(Br)cc(NC(=O)CC2CCC2)c1=O,7.101%,12.98%
O=C(O)C(F)(F)F.[H][C@@]12CN(Cc3ccco3)C[C@]1([H])C(=O)N(c1ccsc1)C2,64.39%,41.31%
COCC1COCCC12CCN(C(=O)CCOc1ccccc1)CC2 (centres undefined),12.44%,9.621% and 6.631%
Cc1cc(C(=O)N2CCN(Cc3ccsc3)CC2)n(C)n1,-4.058%,-1.382%
O=C(Cn1nc(Br)nc1Br)N1CCCC1,-2.794% and -3.868%,-13.36%
CNC(=O)N1CCCCC1c1nnc2n1CCCC2 (centres undefined),9.179%,10.39%
CCc1csc(C2CCCN(C(=O)c3ccc(OC)nc3)C2)n1 (centres undefined),25.14%,40.67%
Cc1cc(CN2CCCC(Cn3cncn3)C2)no1 (centres undefined),-1.398%,-15.14%
O=C(NCCn1ccnc1)N1CCCC1c1cccs1 (centres undefined),-7.115%,0.09377%
COc1cccc(/C=C/CCN2CCCN(C(C)=O)CC2)c1,5.449% and -16.36%,8.428%
[H][C@]12CC[C@@]3(N=C(c4ccccc4)NC3=O)[C@@]1([H])CN(C(=O)COC)C2,13.99% and -1.969%,-0.6925%
Cc1cccc2c1nc1n2[C@@H](CNC(=O)Cc2ccccc2)COC1,-0.8648% and -23.42%,-15.27%